In the supplement of paper PMC6078165:
± gives the standard deviation of the averaged measurements. The reference is the same well before dosing, and untreated signal decays as well.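 Fibroblast labels name human fibroblasts: mostly primary ones from tissues such as uterus (C12385, HUF), lung (H6013), bone (Hs27A), adrenal (HADF) and skin (WS1), plus mammary HMF and breast cancer-associated Hs343T. The cancer cells are basal-like or mesenchymal-like triple-negative breast cancer lines. The paper calls a changed response a hit when it shifts by more than 3x the replicate standard deviation. The tissue of the other fibroblasts is not given here.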

Tested on: MDAMB468
Experiment: relative JC-1 red fluorescence (viability) vs pre-drug, coculture with fibroblast (fraction); higher = more viable cancer cells
Conditions: 100 µM
Method: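 JC-1 labelled TNBC cells cocultured 1:1 (1,500 cells each) with CellTrace Violet stained primary or stromal fibroblasts in 384-well plates in FluoroBrite medium, treated with one of 42 anticancer drugs at 0.1, 1, 10 or 100 uM. JC-1 red fluorescence (mitochondrial integrity in cancer cells only) was read by plate reader every 8 h for 72 h. Values are normalised to each well's pre-drug value. The stock of one drug was tenfold lower, so its dose labels may be too high.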

O=c1[nH]cc(F)c(=O)[nH]1 [Fluorouracil]
relative JC-1 red fluorescence
Conditions	8 h	16 h	24 h	32 h	40 h	48 h	56 h	64 h	72 h
coculture fibroblast: C12385	0.882 ± 0.021	0.822 ± 0.018	0.816 ± 0.04	0.764 ± 0.052	0.737 ± 0.059	0.73 ± 0.068	0.686 ± 0.079	0.657 ± 0.084	0.64 ± 0.087
coculture fibroblast: H6013	0.8455 ± 0.0027	0.847 ± 0.019	0.797 ± 0.016	0.774 ± 0.011	0.74 ± 0.0064	0.7376 ± 0.0046	0.6979 ± 0.0035	0.68 ± 0.014	0.617 ± 0.02
coculture fibroblast: H6019	0.829 ± 0.02	0.821 ± 0.0099	0.8001 ± 0.0015	0.7498 ± 0.0027	0.71316 ± 0.00055	0.6952 ± 0.0013	0.647 ± 0.0068	0.6139 ± 0.0014	0.5855 ± 0.0023
coculture fibroblast: H6076	0.923 ± 0.11	0.912 ± 0.12	0.864 ± 0.17	0.901 ± 0.13	0.9 ± 0.028	0.834 ± 0.12	0.811 ± 0.11	0.83 ± 0.06	0.81 ± 0.16
coculture fibroblast: H6231	0.836 ± 0.019	0.923 ± 0.0095	0.873 ± 0.016	0.86 ± 0.049	0.798 ± 0.034	0.785 ± 0.057	0.743 ± 0.067	0.723 ± 0.079	0.722 ± 0.084
coculture fibroblast: HADF	0.893 ± 0.049	0.836 ± 0.019	0.774 ± 0.024	0.772 ± 0.031	0.727 ± 0.048	0.715 ± 0.063	0.674 ± 0.065	0.662 ± 0.068	0.618 ± 0.06
coculture fibroblast: HCFa	0.845 ± 0.017	0.842 ± 0.034	0.783 ± 0.038	0.75 ± 0.044	0.689 ± 0.043	0.678 ± 0.051	0.631 ± 0.052	0.599 ± 0.048	0.542 ± 0.046
coculture fibroblast: HCPF	0.9257 ± 0.0047	0.832 ± 0.14	0.952 ± 0.035	0.9332 ± 0.0064	0.8577 ± 0.0028	0.8349 ± 0.0049	0.782 ± 0.016	0.767 ± 0.02	0.755 ± 0.03
coculture fibroblast: HHSteC	0.877 ± 0.012	0.855 ± 0.019	0.815 ± 0.03	0.792 ± 0.028	0.758 ± 0.035	0.755 ± 0.027	0.704 ± 0.023	0.682 ± 0.013	0.635 ± 0.015
coculture fibroblast: HMF	0.865 ± 0.032	0.946 ± 0.011	0.921 ± 0.05	0.89 ± 0.055	0.812 ± 0.037	0.79 ± 0.043	0.738 ± 0.044	0.72 ± 0.046	0.692 ± 0.058
coculture fibroblast: HPFa	0.9421 ± 0.007	0.8841 ± 0.0084	0.853 ± 0.028	0.803 ± 0.014	0.763 ± 0.013	0.75921 ± 0.00035	0.6954 ± 0.0059	0.67162 ± 0.00043	0.594 ± 0.011
coculture fibroblast: HUF	0.901 ± 0.019	0.8328 ± 0.0054	0.79804 ± 0.00065	0.758 ± 0.011	0.715 ± 0.021	0.698 ± 0.032	0.65 ± 0.025	0.636 ± 0.03	0.612 ± 0.027
coculture fibroblast: Hs5	0.941 ± 0.033	0.88616 ± 0.00088	0.868 ± 0.049	0.854 ± 0.08	0.784 ± 0.091	0.762 ± 0.1	0.746 ± 0.13	0.719 ± 0.14	0.751 ± 0.17
coculture fibroblast: Hs27A	0.8647 ± 0.002	0.835 ± 0.021	0.773 ± 0.025	0.774 ± 0.033	0.715 ± 0.018	0.7 ± 0.022	0.659 ± 0.022	0.639 ± 0.018	0.596 ± 0.0083
coculture fibroblast: Hs343T	0.9233 ± 0.0078	0.87 ± 0.17	0.917 ± 0.086	0.969 ± 0.0046	0.8801 ± 0.00027	0.8633 ± 0.0037	0.839 ± 0.016	0.829 ± 0.022	0.812 ± 0.017
coculture fibroblast: WS1	0.858 ± 0.034	0.838 ± 0.009	0.8 ± 0.015	0.748 ± 0.032	0.716 ± 0.048	0.696 ± 0.054	0.668 ± 0.066	0.65 ± 0.091	0.637 ± 0.089
